From PubChem BioAssay AID493014 (National Center for Advancing Translational Sciences (NCATS), 2011)
This is one part of the list. These are further read-outs of the screen, such as a control signal, another cell line or another target. No call is given for them. The list favours compounds with an active or inconclusive main result. Words in brackets tell the shape of the fitted curve; partial curves, single points and poor fits give uncertain potencies.

Assay: qHTS Assay to Find Inhibitors of Chronic Active B-Cell Receptor Signaling
Details: ABC-DLBCL IkBa-CBG/CBR reporter, luminescence ratio (green luciferase fused to IkBa over red control in TMD8 lymphoma cells), 4 h
How it was run: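 TMD8 human ABC-DLBCL cells with doxycycline-inducible IκBα–green luciferase fusion and unfused red luciferase, in 0.5% FBS medium; compounds up to 46 uM, 4 h at 37C. Green/red luminescence ratio, filter-overlap corrected, fitted to concentration-response curves.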

[1] = measured here: CBR red luminescence, cell number
[2] = measured here: IkBa-CBG green luminescence

Row | Structure (SMILES) | AC50 [1] | AC50 [2]
1 | CCN1C(=O)C(CC(=O)Nc2ccc(F)cc2)N(CCc2ccc(OC)cc2)C1=S (configuration not stated) | 31.6 µM [falling, single point] | 
2 | Fc1cccc(NC(=S)NNc2ccccc2)c1 |  | 22.4 µM [falling, single point]
3 | COc1ccccc1NC(=O)C(C)N(C)Cc1ccc(Cl)s1 (configuration not stated) | 6.31 µM [rising, full curve, poor fit] | 
4 | CCOc1ccc(S(=O)(=O)Nc2nc3ccccc3nc2Nc2ccc(N3CCOCC3)cc2)cc1 | 1.46 µM [falling, full curve] | 
5 | COC(=O)C1CCN(c2nc3ccccc3nc2C(C#N)C(=O)OCC(C)C)CC1 (configuration not stated) | 2.51 µM [rising, full curve] | 
6 | O=S(=O)(c1ccccc1)c1ccc(N2CCCCCC2)cc1 | 20 µM [rising, single point] | 
7 | Cc1nc2c(-c3ccccc3)c(C)[nH]n2c(=O)c1Cl | 11.6 µM [falling, partial curve] | 
8 | CCN(CC)c1ccc2cc(-c3nc(-c4ccccc4)no3)c(=O)oc2c1 | 0.251 µM [falling, full curve, poor fit] | 
9 | CCOC(=O)C1CCCN(C(=O)COc2ccccc2O)C1 (configuration not stated) | 4.61 µM [rising, partial curve, poor fit] | 
10 | COc1ccc(NC(=O)/C=C/c2ccc(OC)c(OC)c2)cn1 | 8.91 µM [falling, partial curve, poor fit] | 
11 | CCCCNc1ncnc2c1cnn2-c1ccc(Cl)cc1 | 0.231 µM [rising, full curve, poor fit] | 
12 | O=c1c2cc(Cl)ccc2nc(-c2ccc([N+](=O)[O-])cc2)n1O | 8.91 µM [falling, partial curve] | 
13 | Cc1ccc(N(CC(=O)Nc2ccc3c(c2)OCCO3)S(=O)(=O)c2c(C)n[nH]c2C)cc1 | 2.24 µM [falling, partial curve, poor fit] | 
14 | CCN1CCN(c2ccc(S(=O)(=O)N3CCCCC3)cc2NC(=O)Cc2ccccc2)CC1 | 6.51 µM [rising, partial curve, poor fit] | 
15 | O=[N+]([O-])c1ccc(N/N=C/c2cn(-c3ccccc3)nc2-c2ccccc2)cc1 | 0.501 µM [falling, partial curve, poor fit] | 
16 | Cc1ccc(NC(=O)CCCN2C(=O)/C(=C/C=C/c3ccccc3)SC2=S)cc1 | 3.66 µM [falling, full curve] | 
17 | CC(NC(=O)COC(=O)C1=NN(c2ccccc2)C(=O)CC1)c1ccccc1 (configuration not stated) | 0.0366 µM [rising, full curve, poor fit] | 
18 | OCCN1CCN(CC(O)COc2ccc(-c3ccccc3)cc2)CC1 (configuration not stated) | 29.1 µM [rising, single point] | 
19 | C=C1C(=O)[C@@]23[C@H](O)C[C@@H]4C(C)(C)CC[C@H](O)[C@]4(C)[C@@H]2C[C@H](O)[C@@H]1[C@H]3O | 5.17 µM [falling, full curve] | 23.1 µM [rising, single point]
20 | O=C(NCCCN1CCN(c2cccc(Cl)c2)CC1)c1ccc(N2CCCC2=O)cc1 | 35.5 µM [falling, single point] | 

Sorted by molecular weight (falling): part of the list above.
Row | Structure (SMILES) | AC50 [1] | AC50 [2]
4 | CCOc1ccc(S(=O)(=O)Nc2nc3ccccc3nc2Nc2ccc(N3CCOCC3)cc2)cc1 | 1.46 µM [falling, full curve] | 
6 | O=S(=O)(c1ccccc1)c1ccc(N2CCCCCC2)cc1 | 20 µM [rising, single point] | 
7 | Cc1nc2c(-c3ccccc3)c(C)[nH]n2c(=O)c1Cl | 11.6 µM [falling, partial curve] | 

(continued)

Row | Structure (SMILES) | AC50 [1] | AC50 [2]
21 | CSc1cccc(NC(=O)c2[nH]c(C)c(C(C)=O)c2C)c1 | 2.51 µM [rising, full curve, poor fit] | 
22 | NC(=O)C1(N2CCCCC2)CCN(Cc2ccc(F)cc2)CC1 | 25.9 µM [falling, single point] | 
23 | O=c1oc(-c2ccccc2)cc(Cl)c1Cl | 12.6 µM [falling, partial curve, poor fit] | 
24 | Cc1ccc2nc(NC(=O)c3ccc(Cn4cc(Cl)cn4)o3)sc2c1 | 1.46 µM [falling, full curve, poor fit] | 
25 | CCOC(=O)CSc1nnc(NC(=O)c2cccc([N+](=O)[O-])c2C)s1 | 1.84 µM [falling, full curve] | 
26 | COc1c(C(=O)NC(=S)Nc2nnn(C)n2)cc2ccccc2c1Br | 35.5 µM [falling, single point] | 
27 | Cc1cc(C(=O)N/N=C/c2ccc(OCc3ccccc3)cc2)c(C)o1 | 11.2 µM [falling, partial curve, poor fit] | 
28 | CCn1c(=O)c(CCC(=O)N2CCOCC2)c(C)c2c(C)nn(-c3ccccc3)c21 | 35.5 µM [falling, single point] | 
29 | CCSc1nc2sccc2c(=O)n1-c1ccccc1 | 11.2 µM [rising, partial curve, poor fit] | 
30 | N#CCSc1nnc(-c2sc3ccccc3c2Cl)o1 | 20.6 µM [falling, single point] | 
31 | O=c1ccnc(S/C=C/c2ccccc2)[nH]1 | 6.31 µM [falling, full curve] | 
32 | Cc1nn(C)c(C)c1CS(=O)(=O)c1ccccc1 | 2.82 µM [rising, partial curve, poor fit] | 
33 | COc1ccccc1N(CC(=O)NC1CCCC1)S(=O)(=O)c1cccc(C(F)(F)F)c1 | 29.1 µM [falling, partial curve, poor fit] | 
34 | Cc1ccc(C(=O)OCC(=O)NC(=O)c2cccn2C)cc1 | 14.6 µM [rising, single point] | 
35 | CCn1cc(C(=O)NCCc2ccc(Cl)cc2)c(=O)c2cc(S(=O)(=O)N(C)C)ccc21 | 22.4 µM [rising, single point] | 
36 | S=C(NCCC(c1ccccc1)c1ccccc1)Nc1cccc(Cl)c1 | 35.5 µM [falling, single point] | 17.8 µM [rising, partial curve, poor fit]
37 | Cc1c(NS(=O)(=O)c2cccc([N+](=O)[O-])c2)c(=O)n(-c2ccccc2)n1C | 35.5 µM [rising, partial curve, poor fit] | 
38 | CCOc1ccc2nc(SCC#N)c(C#N)cc2c1 | 23.1 µM [rising, partial curve] | 
39 | c1ccc2oc(SCc3cn4ccsc4n3)nc2c1 | 12.6 µM [falling, single point] | 
40 | CCOC1=C/C(=C/c2c(N)n3nc(-c4ccccc4)sc3nc2=O)C=CC1=O | 10 µM [falling, partial curve, poor fit] | 
